The whole screen tested about 31,000 sequences, of which about 1,400 (4.5%) were called active.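 Rule for the calls: active = median seed-adjusted z-score above 1 or below -1; inactive = the rest.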 Some of the results follow.
Assay: Novel Modifiers of Survival Motor Neuron (SMN) Protein: Gene Identification via Genome-wide siRNA Screen;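 note: luminescence tracks full-length SMN protein made from the SMN2 reporter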
Conditions: HEK293T SMN2-luciferase reporter, siRNA knockdown, 72 h; actives lie on both sides
Summary of the method: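 Steps: spot 1 pmol siRNA, add Lipofectamine RNAiMax in serum-free DMEM, seed HEK293T SMN2–luciferase reporter cells; incubate 72 h at 37 °C; add ONE-Glo; normalize luminescence to control siRNA, log10, MAD. Candidates: |MAD| > 1.0.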

Row | Sequence | median seed-adjusted z-score
1 | GACCCUCGAUUACUAUUCATT against OMA1 | inactive: 0
2 | GGAGGUGGACACUUCAGAATT against NUCB1 | inactive: 0.232
3 | ACACUGACAUGGACGGGAATT against ADAMTS8 | inactive: 0.115
4 | CAGUUUCGAUGGAGUGAAATT against CMAS | inactive: -0.491
5 | CCUCCUACUUGCCUAUCUATT against FOXH1 | inactive: 0
6 | CCAACACUUGGAGAUUUUUTT against ASCL2 | inactive: -0.249
7 | GGAGUUACCUGAGCCCAGATT against CTSW | inactive: -0.342
8 | GGCCCAUAAGUACCACUGATT against HBE1 | inactive: -0.425
9 | AGCUCAAUCCGGACUGUGATT against BGLAP | inactive: -0.488
10 | GGUACAAUCUAGCGACAAATT against SUCLG2 | inactive: -0.619
11 | GGCUAACAGUGAUGCUAUUTT against GHR | inactive: 0.273
12 | GAGCAGGAUUGGUUUAAAATT against SNAPC4 | inactive: -0.62
13 | AGUUGUUUUUGGACCACAATT against GP5 | inactive: -0.286
14 | GCUGGUUUCGUGUACAUCUTT against ALG3 | inactive: -0.446
15 | GGACUUGAACAGUAUGCUATT against CCT8 | inactive: -0.161
16 | CUCAAGAAAAUGCAUCAGATT against EBPL | inactive: -0.113
17 | CUACAGAUCUCCAAUGAAATT against DAXX | inactive: 0.349
18 | GGAGUGAUGAUAACGAGGATT against LATS1 | inactive: 0
19 | GCAGAACUGACAGUCGAUATT against DMTF1 | inactive: 0.396
20 | GCCCAACAGGUACCGCUAUTT against NAGLU | inactive: -0.526
21 | GAUUCCGUCUAAUCCUAGATT against C5 | inactive: 0.153
22 | GACCCAGACUGCAACAAGATT against CELSR2 | inactive: -0.493

Row | Sequence | median seed-adjusted z-score
23 | CAAGGAAUAUUGACGUAUATT against DDX53 | inactive: -0.136
24 | GUCUGUCAAUGUACCUUCUTT against 3-Mar | inactive: 0.069
25 | CAACUUGGACAAGACCUUATT against GYS1 | inactive: 0.874
26 | CCGCUGAUGUUAUUCGCAUTT against PNMA1 | inactive: 0.2
27 | GGCGGUGAAUGACAGCUAUTT against GRIN2A | inactive: 0.025
28 | UCCCGAUUCUGAAUAUUCATT against SEPX1 | inactive: -0.0545
29 | CAACAGCUCUGUACUUACATT against ZHX1 | inactive: -0.566
30 | GCCUUUCAGAAUCCGCAGATT against UQCRC2 | inactive: -0.848
31 | CACUAACAUUUUUCGGAAUTT against ACP6 | inactive: -0.631
32 | GUCAUGGUGUGGAACCAGATT against ADAMTSL2 | inactive: 0.806
33 | CGAGGACACCCUUAGCAGUTT against ADRA1B | inactive: -0.472
34 | GAAAAUUACCACAAGCAAATT against ZNF138 | inactive: -0.0937
35 | CACAUGUUUGACUCAAAUUTT against PLGLB2 | inactive: 0.234
36 | ACACUGACGUGUCUAUGGATT against KCNK9 | inactive: 0.735
37 | CUACGUUGAUAUUAUCAAATT against SULT1C3 | inactive: -0.731
38 | UGGAAUACAUGGAUCAGAATT against HEPACAM | inactive: -0.063
39 | GGGUGAUAAAGAGAGCGGATT against ZNF646 | inactive: 0
40 | UCUCUCAGCUGAUUAAUUUTT against ARL15 | inactive: -0.944
41 | CCAUCUCAGAGAGACCUCUTT against ZNF778 | inactive: 0.0459
42 | GGAGUUAUUCAAAACGAUATT against QRSL1 | inactive: -0.539
43 | GCACCUUACUAUCUCAUGATT against SCYL3 | inactive: 0.665
44 | GACGCAACCUUAUUCGCAATT against FBXO27 | inactive: -0.286

Part of the list above, tab-delimited:
Row	Sequence	median seed-adjusted z-score
30	GCCUUUCAGAAUCCGCAGATT against UQCRC2	inactive: -0.848
31	CACUAACAUUUUUCGGAAUTT against ACP6	inactive: -0.631

The listing continues:

Row | Sequence | median seed-adjusted z-score
45 | CCCAGUUCCUGCUAUCUCATT against POU2F3 | active: -1.53
46 | CCAGACAGGAGGAACCAUATT against HDAC11 | inactive: 0.259
47 | CACUAGGUCUGGUAAAGGATT against ZFYVE1 | inactive: -0.546
48 | GGAUGUUCCCGUCGCCUUATT against BARHL1 | inactive: 0.397
49 | GCACAGGACAGACAGGCUATT against SRC | inactive: -0.0246
50 | GAAUAGCAUGGAUGAAUGATT against SLC18A1 | inactive: 0.0986
51 | CAAUUUAAUCGUUUACCUUTT against MAP2K1IP1 | inactive: 0.333
52 | GGGUUGGAGUAAUUGGUUUTT against GNL3 | inactive: 0.572
53 | GAGCCUCUCCUAUACCAAATT against SLC25A39 | inactive: -0.111
54 | AGAGACAAAAUAAAUGGAATT against HLA-A | inactive: 0.189
55 | CGUUAUUGCCUGUUUGGAATT against GUCY1A2 | inactive: -0.186
56 | AGAGCACAGCGGGCAUAUATT against GSTZ1 | inactive: -0.144
57 | CGCCUAUACUUCUUCAUCUTT against INHBB | inactive: -0.522
58 | CAAUGUAUCUUGUGAUUUUTT against AGPAT5 | inactive: 0.571
59 | GGAAAACCCUGGAUAGUCATT against TIAM1 | inactive: 0.13
60 | AGAGCGAGCCUUUGCUGAUTT against DAD1 | inactive: -0.45
61 | GGAAGUCUCUAAUCUCAAATT against ATP10B | inactive: 0.51
62 | UGAGCAACUUGGACAGCAATT against S100A4 | inactive: 0.567
63 | GUACUGCGAUGAAACUUCATT against ROR1 | inactive: -0.0044
64 | GGAUUCCAGUCCAACAACATT against XPNPEP2 | inactive: -0.158
65 | CAAUUUCCCACAUAACCAATT against TSNAX | inactive: 0.514
66 | CAAGAGAACCAAGCAGAAATT against CXCR5 | inactive: 0.0406

Row | Sequence | median seed-adjusted z-score
67 | GGCUGUUAAUGGGACAGAUTT against MPZL2 | inactive: -0.0172
68 | CGGCAAUUGUUGACGUGAATT against TXNDC11 | inactive: 0.642
69 | CUAUGACGACUUAUCCAAATT against ATP5A1 | inactive: -0.974
70 | CACUAUUACUGCUACGUGATT against USP36 | inactive: -0.147
71 | GGUACAACAAAAUACUGCATT against CNOT4 | inactive: -0.116
72 | AGAUUUUCGUGGCAUCAGGTT against CRLF2 | inactive: 0.218
73 | CCACAACUGUACACCUGAATT against IMPDH2 | inactive: 0.119
74 | CGUAAGCCUUUGGUCAUAATT against HSPD1 | inactive: -0.146
75 | CUGACAAACCGAAAGUAGATT against PCGF5 | inactive: 0.25
76 | GUGAAGAAGUUGCUUAUUATT against MAST1 | inactive: -0.0897
77 | UGGCCAACGUUGUCAUGAATT against RHBDL1 | inactive: -0.365
78 | CGAGUGCUCUUGUACGUGATT against GRHL2 | inactive: 0.0233
79 | GGACUACAGCUAUUCACUUTT against NDST2 | inactive: -0.0582
80 | CUCUCACUCUCAUAGGAGATT against TRA2A | inactive: -0.187
81 | GCUCAUAUGCUGUUGAUUUTT against TMPRSS11E | inactive: 0.0512
82 | AGUUCUACCUGGUCUUUGATT against HIPK4 | inactive: 0
83 | AUAAACUGGUGACAACUUUTT against FABP1 | inactive: -0.302
84 | CCAUAUCAGUGCAACGAGUTT against ZNF624 | inactive: 0.378
85 | GAACUAAGUAUUUCGGAAATT against MPHOSPH10 | inactive: 0.374
86 | CCCACCUGCUUAUCCUCUATT against ABCB8 | inactive: -0.558
87 | GGUCGAGUAUCUCAGAAAATT against SFRS9 | inactive: -0.144
88 | GGUCAUCCUCGAUUUUUCATT against GAD1 | inactive: 0.101

Row | Sequence | median seed-adjusted z-score
89 | GCUCCAAAUUGGUUGUAUUTT against PRKAG1 | inactive: 0.431
90 | GAACCCAGAGGAUACCUAUTT against REM2 | inactive: 0.109
91 | GGACAGCACCAAGACAAGATT against SPRY1 | inactive: 0.642
92 | GGGACAACUUUGUUAUCAUTT against AP1M1 | inactive: 0.42
93 | GACUUGAAGUCACUGAUGATT against PPM1A | inactive: 0.0153
94 | GCAAUUGAAUAUUGGAGUUTT against MED17 | active: -2.06
95 | GAACUAUGACCGAGAAGUATT against POU6F2 | inactive: 0.416
96 | GACCGUUUAAUGAAGCUUUTT against SPTLC2 | inactive: 0
97 | GCAUCAACGCGAACAGAGATT against PRDM16 | inactive: 0.185
98 | GGAUCAAGCACCACUCUUATT against SORBS2 | inactive: 0.0391
99 | CUGUAUCCCUUGGAAAGCATT against OVGP1 | inactive: -0.642
100 | CUACAGUCGGGAACAUGAATT against CLK3 | active: -1.11
101 | AGCUUUUGAUCUGACAGUATT against CCNA1 | inactive: -0.203
102 | CACCUGCCGUUCAUCUAUATT against GYG2 | inactive: 0.113
103 | GACCUAAAGAAGGAGAUUATT against CNOT3 | inactive: 0.872
104 | GAAGCAGAGAUAUACCAGATT against ACVR1B | inactive: 0.201
105 | GGGUAACCACUGACAUUCATT against SUPT5H | active: -4.02
106 | CGGUUACGAUCAGAAUGCATT against CYFIP1 | inactive: -0.377
107 | CUGAUGAGGUGAAACGUGATT against F5 | inactive: -0.127

Individual results from above.
GGUCAUCCUCGAUUUUUCATT against GAD1 – median seed-adjusted z-score: inactive: 0.101
GCAGAACUGACAGUCGAUATT against DMTF1 – median seed-adjusted z-score: inactive: 0.396
ACACUGACGUGUCUAUGGATT against KCNK9 – median seed-adjusted z-score: inactive: 0.735
GCUGGUUUCGUGUACAUCUTT against ALG3 – median seed-adjusted z-score: inactive: -0.446
